According to article PMC6448136:
No constants are given. Whether binding was seen depends on the method and setting. Values belong to the substance of their own block, whether it stands above or below them.

The chains behind the UniProt entries cited, without tags or fusion partners. Where a name states a change or a piece, a line headed by the entry shows the natural chain unless it says otherwise. A line that says so, or that is headed by a name, gives the form on record, which may keep a tag or linker. Residues count along the entry.
UniProt Q13153, residues 70-545: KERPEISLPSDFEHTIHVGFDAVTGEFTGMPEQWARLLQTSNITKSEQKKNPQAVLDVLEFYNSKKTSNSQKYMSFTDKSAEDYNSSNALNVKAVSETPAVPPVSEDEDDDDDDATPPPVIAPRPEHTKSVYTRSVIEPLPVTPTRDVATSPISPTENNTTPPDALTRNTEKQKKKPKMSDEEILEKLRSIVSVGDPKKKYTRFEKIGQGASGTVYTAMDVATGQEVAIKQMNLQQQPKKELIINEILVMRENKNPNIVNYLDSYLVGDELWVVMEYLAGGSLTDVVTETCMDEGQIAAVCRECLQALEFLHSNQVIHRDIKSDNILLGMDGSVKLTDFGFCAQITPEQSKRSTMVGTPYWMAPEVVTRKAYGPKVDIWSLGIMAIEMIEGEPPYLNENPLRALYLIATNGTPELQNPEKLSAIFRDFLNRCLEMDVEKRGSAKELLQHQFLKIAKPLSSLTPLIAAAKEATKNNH
PAK3 ΔN, unphosphorylated (O75914-2, form named): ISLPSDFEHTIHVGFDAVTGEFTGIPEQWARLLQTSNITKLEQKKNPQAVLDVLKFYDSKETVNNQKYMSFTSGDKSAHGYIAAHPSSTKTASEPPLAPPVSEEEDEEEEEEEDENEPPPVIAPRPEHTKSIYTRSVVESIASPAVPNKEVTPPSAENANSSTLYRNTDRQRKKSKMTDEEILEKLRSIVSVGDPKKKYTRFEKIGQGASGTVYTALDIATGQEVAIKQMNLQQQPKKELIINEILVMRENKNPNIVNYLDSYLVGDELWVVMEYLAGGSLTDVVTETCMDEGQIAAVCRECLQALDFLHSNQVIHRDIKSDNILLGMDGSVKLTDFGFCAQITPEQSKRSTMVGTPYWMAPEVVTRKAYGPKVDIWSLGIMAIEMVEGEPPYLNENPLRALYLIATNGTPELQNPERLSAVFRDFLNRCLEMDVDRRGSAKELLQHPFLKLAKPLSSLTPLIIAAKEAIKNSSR
full-length PAK3, auto-phosphorylated (O75914-2, form named): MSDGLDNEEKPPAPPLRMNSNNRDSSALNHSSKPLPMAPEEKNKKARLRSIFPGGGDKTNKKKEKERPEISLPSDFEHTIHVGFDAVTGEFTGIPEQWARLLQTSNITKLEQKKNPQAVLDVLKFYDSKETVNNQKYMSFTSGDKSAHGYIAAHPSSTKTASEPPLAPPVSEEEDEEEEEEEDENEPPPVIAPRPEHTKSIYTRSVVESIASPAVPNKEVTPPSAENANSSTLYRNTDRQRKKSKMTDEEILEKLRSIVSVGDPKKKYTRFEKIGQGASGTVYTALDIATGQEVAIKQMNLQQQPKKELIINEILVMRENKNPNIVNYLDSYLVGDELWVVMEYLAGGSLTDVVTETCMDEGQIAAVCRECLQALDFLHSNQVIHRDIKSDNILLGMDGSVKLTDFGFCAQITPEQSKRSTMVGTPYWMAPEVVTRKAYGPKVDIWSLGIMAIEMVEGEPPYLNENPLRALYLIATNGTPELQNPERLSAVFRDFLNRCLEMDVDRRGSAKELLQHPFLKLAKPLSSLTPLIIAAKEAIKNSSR

What was measured:
[1] = target: PAK1 ΔN, unphosphorylated (human) (UniProt Q13153); experiment: AUC; sedimentation velocity (AUC-SV), 4 °C, 50 mM HEPES pH 7.5, 150 mM NaCl, 0.5–1.0 mg/ml, 40,000 rpm, c(s) analysis in SEDFIT; both purified
[2] = target: PAK1 ΔN, unphosphorylated (human) (UniProt Q13153); experiment: HPLC-SAXS; SEC-coupled small angle X-ray scattering, Shodex 403 column, 15 °C, 25 mM HEPES pH 7.5, 150–200 mM NaCl, 0.5 mM TCEP, 2–2.5% glycerol, 1% sucrose; samples 5–32 mg/ml; mass by the QR method; both purified
[3] = target: PAK1 ΔN, unphosphorylated (human) (UniProt Q13153); experiment: SEC + AUC; Stokes radius from analytical SEC combined with the sedimentation coefficient from AUC-SV in the Svedberg equation; both purified
[4] = target: PAK3 ΔN, unphosphorylated (human) (UniProt O75914); experiment: AUC; sedimentation velocity (AUC-SV), 4 °C, 50 mM HEPES pH 7.5, 150 mM NaCl, 0.5–1.0 mg/ml, 40,000 rpm, c(s) analysis in SEDFIT; both purified
[5] = target: PAK3 ΔN, unphosphorylated (human) (UniProt O75914); experiment: HPLC-SAXS; SEC-coupled small angle X-ray scattering, Shodex 403 column, 15 °C, 25 mM HEPES pH 7.5, 150–200 mM NaCl, 0.5 mM TCEP, 2–2.5% glycerol, 1% sucrose; samples 5–32 mg/ml; mass by the QR method; both purified
[6] = target: PAK3 ΔN, unphosphorylated (human) (UniProt O75914); experiment: SEC + AUC; Stokes radius from analytical SEC combined with the sedimentation coefficient from AUC-SV in the Svedberg equation; both purified
[7] = target: full-length PAK3, auto-phosphorylated (human) (UniProt O75914); experiment: HPLC-SAXS; SEC-coupled small angle X-ray scattering, Shodex 403 column, 15 °C, 25 mM HEPES pH 7.5, 150–200 mM NaCl, 0.5 mM TCEP, 2–2.5% glycerol, 1% sucrose; samples 5–32 mg/ml; mass by the QR method; both purified

binding [1]: no binding (tested: 0.5–1.0 mg/ml)
binding [2]: no binding (tested: 5–32 mg/ml)
binding [3]: no binding
Substance: PAK1 ΔN, unphosphorylated (from UniProt Q13153 70-545) (domain or fragment)

binding [4]: no binding (tested: 0.5–1.0 mg/ml)
binding [5]: no binding (tested: 5–32 mg/ml)
binding [6]: no binding
Substance: PAK3 ΔN, unphosphorylated (from UniProt O75914-2 70-544) (domain or fragment)

binding [7]: no binding (tested: 5–32 mg/ml)
Substance: full-length PAK3, auto-phosphorylated (from UniProt O75914-2 1-544) (enzyme)
